According to PubChem BioAssay AID2685 (National Center for Advancing Translational Sciences (NCATS), 2010):
Among all 320,000 compounds or so, about 2,100 (0.66%) were called active. The shares of active, inactive and inconclusive entries below differ from those in the screen. Calls come from the whole dose curve; as a rule, active = well fitted inhibition curve with a large enough effect in the signal ratio, with a control signal flat (not every such curve was filed as active); inconclusive = small, poorly fitted or top-dose-only effect, or effect the other way, or a change in a side signal; inactive = flat fitted curve, though single readings scatter; the % refers to the signal ratio. Potencies of inconclusive entries are doubtful fits and often do not repeat.

Assay: qHTS Assay for Lipid Storage Modulators in Drosophila S3 Cells
Conditions: BODIPY lipid droplet fluorescence, 18-24 h, cells fed with added oleic acid; lipid storage change, negative = inhibition: at 46.1 µM (top of the series) unless noted
Method in brief: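 Drosophila S3 cells loaded with oleic acid (400 uM, as added) and compounds at several concentrations; lipid droplets imaged by 488-nm laser-scanning cytometry, 500–530 nm intensity and object ratio to cell channel. Percent activity normalized to 20 uM Triacsin C.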
% is set by controls: 0 for no effect and ±100 for the full control effect; potency is the fitted concentration of half-maximal effect.

SMILES	lipid storage change, negative = inhibition	Potency	outcome
O=C(CCNS(=O)(=O)c1ccc(Cl)cc1)OCC(=O)N1CCN(C(=O)c2ccco2)CC1	inconclusive		
O=C(COc1ccc(Cl)cc1)NCCSc1ccccc1	inconclusive: 9.23%		
CCCS(=O)(=O)c1nc(S(=O)(=O)c2ccc(C)cc2)c(N2CCCC2)s1		inconclusive: 5.8 µM [activator, full curve]	
CC1CCCCC1NC(=O)c1ccco1 (centres undefined)		inconclusive: 0.731 µM [activator, single point]	
CCCCOc1ccc(-c2ncc(C(=O)O)c(C)n2)cc1	inconclusive: -16.2%		
CCCCn1c(=O)[nH]c(=O)c2c1nc(-c1ccsc1)n2Cc1ccccc1		inconclusive: 5.8 µM [falling, full curve, poor fit]	
Nc1nc2n(n1)C(c1ccccc1Cl)CC(c1ccc(F)cc1)N2 (centres undefined)	inconclusive: -11.3%		
CCN(CC(=O)Nc1sc2c(c1C#N)CCC(C)C2)Cc1nc2ccccc2c(=O)[nH]1 (centres undefined)	inconclusive: 14.3%		
Cc1cc(C)cc(Oc2nn[nH]n2)c1		inconclusive: 2.06 µM [activator, single point]	
CSc1ccc(-c2ccco2)nn1		inconclusive: 6.51 µM [cytotoxic, single point]	
Cc1cc(C)n(-c2nc3c(c(=O)n(C)c(=O)n3C)n2C)n1	inconclusive: 9.79%		
COC(=O)c1ccccc1NC(=O)C1CCCO1 (centres undefined)	inactive: 5.7%		
O=C(c1sc2ccccc2c1Cl)N(Cc1ccccc1Cl)C1CCS(=O)(=O)C1 (centres undefined)	inconclusive: 74.9%		
COc1ccccc1-n1cnc2cc(NS(=O)(=O)c3ccccc3)ccc21		inconclusive: 3.66 µM [activator, full curve]	
Cc1cc(OCc2cc(C(=O)N3CCN(CC4CC4)CC3)no2)cc(C)c1Cl		inconclusive: 29.1 µM [falling, single point]	
O=C1C=C(c2ccc3ncccc3c2)C[C@@H](c2ccc(F)cc2)C1	inconclusive: -1.73%		
CC(C)C(=O)Nc1ccc(NC(=O)c2ccccn2)cn1	inconclusive: 13.6%		
Cc1c(C(=O)NCCN2CCOCC2)oc2ccc(S(=O)(=O)N3CCCCCC3)cc12		inconclusive: 6.51 µM [falling, single point]	
CC1(C)Cc2nc(Cl)c(C(N)=O)cc2CO1	inconclusive: -20.8%		
Oc1ccc(Br)cc1/C=N/NC(=S)NCCc1ccccc1	inconclusive: -100%		
Cc1ccc(S(=O)(=O)NCC(=O)OCC(=O)N2CCN(C(=O)c3ccco3)CC2)cc1C	inconclusive: -100%		
CCc1cccc(NS(=O)(=O)c2c(C)nc3sc(CC)nn3c2=O)c1	inconclusive: -0.566%		
CCOc1ccc(NC(=O)CCC(=O)NNC(=O)Nc2ccc(Cl)cc2)cc1	inactive: 9.1%		
COc1ccc([N+](=O)[O-])cc1N(CC(=O)NCc1ccco1)S(C)(=O)=O	inconclusive: -7.73%		
Cc1ccc(-n2c(SCC(=O)N3CCOCC3)nnc2-c2cccnc2)cc1C	inconclusive: 13.8%		
CC(=O)c1ccc(NC(=O)c2sc3nc(N4CCOCC4)c4c(c3c2N)CCCC4)cc1		inconclusive: 11.6 µM [falling, single point]	
COCc1nnc(NC(=O)c2cccc(NC(=O)C(C)C)c2)s1	inconclusive: 4.42%		

SMILES	lipid storage change, negative = inhibition	Potency	outcome
CCOC(=O)c1cccc(NC(=O)CSc2nnc(C3CCCCC3)n2C)c1	inconclusive: -51.4%		
Fc1cccc(CNc2ncnc3cc(Cl)ccc23)c1F		inconclusive: 29.1 µM [cytotoxic, single point]	
COc1cccc(C(=O)Nc2cccc(-c3ccc(N4CCOCC4)nn3)c2)c1OC	inconclusive		
CCn1cc(/C=C(\NC(=O)c2ccc(C)cc2)C(=O)NCCCN2CCOCC2)c2ccccc21	inconclusive: 2%		
CCN(CC)C(=O)CSc1nc2ccccc2c(=O)n1OC		inconclusive: 6.51 µM [activator, single point]	
CN(C)CCCN(C(=O)c1ccc(Br)s1)c1nc2cc3c(cc2s1)OCO3	inconclusive: -0.813%		
O=C(CCN1CCOCC1)Nc1ccc(F)cc1		inconclusive: 2.59 µM [activator, full curve]	
Cc1ccc2nc(N3C(=O)C(O)=C(C(=O)c4ccco4)C3c3cccc(O)c3)sc2c1 (centres undefined)	inconclusive: -10.4%		
CCCCn1nnnc1SCC(=O)NNC(=O)c1ccco1	inactive: -4.32%		
CC(=O)c1ccc(N2CCN(S(=O)(=O)c3ccc4c(c3)CC(C)N4C(C)=O)CC2)cc1 (centres undefined)		inconclusive: 18.4 µM [cytotoxic, partial curve]	
O=C(c1c[nH]c(C(=O)C(Cl)(Cl)Cl)c1)c1ccccc1Br	inactive: -13.6%		
CCCn1c(CCNc2nc(-c3ccc(OC)cc3)cs2)nc2ccccc21	inconclusive: 4.69%		
COC(=O)C1=C(O)C2(C(=O)O)CC(C(=O)OC)=C(O)C(C(=O)O)(C1)C2		inconclusive: 0.291 µM [falling, full curve, poor fit]	
COc1cc(NC(=O)Cc2cccs2)cc(OC)c1	inconclusive: 43.5%		
COc1ccc(NC(=O)COC(=O)CNC(=O)C2CCCCC2)cc1	inconclusive: -23.5%		
Cc1ccc(NS(=O)(=O)c2cccc(C(=O)O)c2)c(C)c1	inconclusive: -51.6%		
O=C(Nc1ccc(Cl)cn1)c1cccc2ccccc12		inconclusive: 29.1 µM [activator, partial curve, poor fit]	
CC(NC(=O)CSc1n[nH]c(=O)n1C1CC1)C12CC3CC(CC(C3)C1)C2 (centres undefined)			inactive [at 46.1 µM]
O=C(CSc1nn(-c2ccccc2)c(=S)s1)Nc1ncccn1	inconclusive: 5.74%		
O=C(N/N=C/c1ccc(Br)s1)Nc1ccccc1	inconclusive: 0.684%		
CC(=O)/C(CN1CCCCC1)=N\O	inconclusive: 61%		
COc1ccc(-c2cc(C(=O)N/N=C/c3cccnc3)c3cc(C)cc(C)c3n2)cc1	inconclusive: -18.6%		
CC(=O)c1ccc(NC(=O)CSc2ccc(-c3ccc4c(c3)OCO4)nn2)cc1	inconclusive: 4.64%		
Brc1ccc(-c2csc3ncnc(-n4nnc5ccccc54)c23)cc1	inconclusive: 36.8%		
CCCCN(CC)CCNC(=S)Nc1ccc2nc(N3CCN(C)CC3)cc(C)c2c1		inconclusive: 6.51 µM [falling, single point]	
CCc1cccc(C)c1NC(=O)C1CC(=O)N(C2CCCC2)C1 (centres undefined)	inconclusive: 22.6%		
O=C(NCCCN1CCOCC1)c1ccccc1NS(=O)(=O)c1ccc(F)cc1		inconclusive: 5.8 µM [activator, single point]	

17 successive entries out of the list so far:
SMILES	lipid storage change, negative = inhibition	Potency	outcome
CCCCn1nnnc1SCC(=O)NNC(=O)c1ccco1	inactive: -4.32%		
CC(=O)c1ccc(N2CCN(S(=O)(=O)c3ccc4c(c3)CC(C)N4C(C)=O)CC2)cc1 (centres undefined)		inconclusive: 18.4 µM [cytotoxic, partial curve]	
O=C(c1c[nH]c(C(=O)C(Cl)(Cl)Cl)c1)c1ccccc1Br	inactive: -13.6%		
CCCn1c(CCNc2nc(-c3ccc(OC)cc3)cs2)nc2ccccc21	inconclusive: 4.69%		
COC(=O)C1=C(O)C2(C(=O)O)CC(C(=O)OC)=C(O)C(C(=O)O)(C1)C2		inconclusive: 0.291 µM [falling, full curve, poor fit]	
COc1cc(NC(=O)Cc2cccs2)cc(OC)c1	inconclusive: 43.5%		
COc1ccc(NC(=O)COC(=O)CNC(=O)C2CCCCC2)cc1	inconclusive: -23.5%		
Cc1ccc(NS(=O)(=O)c2cccc(C(=O)O)c2)c(C)c1	inconclusive: -51.6%		
O=C(Nc1ccc(Cl)cn1)c1cccc2ccccc12		inconclusive: 29.1 µM [activator, partial curve, poor fit]	
CC(NC(=O)CSc1n[nH]c(=O)n1C1CC1)C12CC3CC(CC(C3)C1)C2 (centres undefined)			inactive [at 46.1 µM]
O=C(CSc1nn(-c2ccccc2)c(=S)s1)Nc1ncccn1	inconclusive: 5.74%		
O=C(N/N=C/c1ccc(Br)s1)Nc1ccccc1	inconclusive: 0.684%		
CC(=O)/C(CN1CCCCC1)=N\O	inconclusive: 61%		
COc1ccc(-c2cc(C(=O)N/N=C/c3cccnc3)c3cc(C)cc(C)c3n2)cc1	inconclusive: -18.6%		
CC(=O)c1ccc(NC(=O)CSc2ccc(-c3ccc4c(c3)OCO4)nn2)cc1	inconclusive: 4.64%		
Brc1ccc(-c2csc3ncnc(-n4nnc5ccccc54)c23)cc1	inconclusive: 36.8%		
CCCCN(CC)CCNC(=S)Nc1ccc2nc(N3CCN(C)CC3)cc(C)c2c1		inconclusive: 6.51 µM [falling, single point]	

The list goes on.

SMILES	lipid storage change, negative = inhibition	Potency	outcome
CN(C)S(=O)(=O)c1cccc(C(=O)NCC(C)(C)CNC(=O)c2cccc(S(=O)(=O)N(C)C)c2)c1		inconclusive: 29.1 µM [falling, single point]	
CCS(=O)(=O)Nc1ccc2[nH]c(=O)[nH]c2c1	inconclusive: -35.1%		
Cn1c(=O)n(C)c2cc([N+](=O)[O-])c(N3CCN(C(=O)c4ccccc4)CC3)cc21	inconclusive: -5.58%		
COc1ccc(NS(=O)(=O)c2cc(NC(=O)c3cccs3)ccc2N2CCCC2)cc1		inconclusive: 20.6 µM [activator, partial curve]	
Cc1nc2ncnn2c(C)c1Cc1ccc(Cl)cc1	inconclusive: -70.3%		
COC(=O)c1noc(-c2ccc(C)cc2)n1	inconclusive: -37.2%		
Cc1ccc(NS(=O)(=O)c2ccc(N/N=C/c3ccccc3OCC(=O)O)c([N+](=O)[O-])c2)c(C)c1	inconclusive: 15.7%		
O=C(NCCc1ccc(C(F)(F)F)cc1)C1CCC(=O)N(CCc2cccc(F)c2)C1 (centres undefined)	inconclusive: -14.9%		
CSc1ccccc1C(=O)OCC(=O)N1CCCC1=O	inconclusive: -1.17%		
O=C(CSc1ccc2c(c1)OCCO2)NCc1ccccc1	inconclusive: -1.65%		
O=C(c1ccc(CS(=O)c2cccc(Cl)c2)o1)N1CCN(c2ccccn2)CC1 (centres undefined)		active: 18.4 µM	
O=C(COc1nsnc1N1CCOCC1)Nc1ccc([N+](=O)[O-])cc1	inconclusive: 58.1%		
O=C(NCCO)C1(c2ccccc2)CCCC1		inconclusive: 0.58 µM [falling, single point]	
O=C(Nc1cccc([N+](=O)[O-])c1)c1ccc2c(c1)OCCO2	inconclusive: 0.458%		
CSc1ccc(CN(C)C(C)C(=O)Nc2ccc(F)c(F)c2F)cc1 (centres undefined)	inconclusive: 61.8%		
CCCN(CCC)CCCNC(=O)c1cc2c(=O)[nH]c3ccccc3c2s1	inconclusive: 40.8%		
Cc1cc(C(=O)NCC2CCCO2)sc1C (centres undefined)	inconclusive: 7.77%		
Cc1ccc(-c2nc3c4ccccc4ccn3c2CN2CCCCC2)cc1	inconclusive: -6.49%		
CCCc1nc(SCc2ccccn2)c2c(=O)n(C)c(=O)n(C)c2n1	inconclusive: 52.5% [activator]		
O=C(COc1ccccc1)N(CCc1ccccc1)c1nc(-c2ccc(F)cc2)cs1		inconclusive: 20.6 µM [falling, single point]	
COc1cc(CN(C2CCCCC2)S(=O)(=O)c2ccc(S(=O)(=O)N(C)C3CCCCC3)cc2)cc(OC)c1OC	inconclusive: -79.1%		
CC(C)=NOc1cc(NC(=O)CCl)cc([N+](=O)[O-])c1	inconclusive: -10.8%		
COc1ccc(CN2CCCC(N3CCN(c4cccc(Cl)c4)CC3)C2)cc1OC (centres undefined)	inconclusive: -8.51%		
O=S(=O)(CCSc1nc2ccccc2o1)c1nc2ccccc2s1		inconclusive: 29.1 µM [cytotoxic, single point]	
COC(=O)CN1C(=O)C2(OCCCO2)c2cc(Br)ccc21	inconclusive: 53.7%		
